Data as given in article PMC7997005, “Dynamic interplay between the co-opted Fis1 mitochondrial fission protein and membrane contact site proteins in supporting tombusvirus replication” (PLoS Pathogens, 2021).
Results are given in words; binding and its absence hold for the method and conditions named. A result given as binding can be weak or reduced; the word gives no strength. For some of these results: In cells and extracts the contact can be indirect. For some of these results: Tags and fused reporters may be left off the sequences shown.

T1: nYFP-AtFis1B (Arabidopsis thaliana) (UniProt Q94CK3)
T1 sequence: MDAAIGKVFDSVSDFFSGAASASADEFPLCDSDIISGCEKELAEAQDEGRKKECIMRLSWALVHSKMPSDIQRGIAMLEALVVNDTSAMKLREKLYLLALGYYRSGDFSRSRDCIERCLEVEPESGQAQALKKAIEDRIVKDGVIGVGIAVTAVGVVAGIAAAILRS

T2: nYFP-AtFis1A (Arabidopsis thaliana) (UniProt Q9M1J1)
T2 sequence: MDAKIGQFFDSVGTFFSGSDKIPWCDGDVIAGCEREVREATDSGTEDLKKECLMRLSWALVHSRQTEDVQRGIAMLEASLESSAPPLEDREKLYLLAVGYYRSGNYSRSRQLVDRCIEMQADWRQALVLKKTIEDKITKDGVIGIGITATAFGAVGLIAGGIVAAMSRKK

T3: yeast Fis1p, MYTH bait (S. cerevisiae) (UniProt P40515)
T3 sequence: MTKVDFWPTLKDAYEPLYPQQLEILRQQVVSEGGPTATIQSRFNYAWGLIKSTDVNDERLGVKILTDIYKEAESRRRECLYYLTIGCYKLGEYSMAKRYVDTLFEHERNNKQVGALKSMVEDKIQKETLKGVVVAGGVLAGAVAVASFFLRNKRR

B1: yeast His6-Fis1p (natural protein, S. cerevisiae, UniProt P40515 1-155, looked up)
chain: T3 sequence
notes: Fis1p mitochondrial fission 1 protein, S. cerevisiae; also called HisScFis1; source: yeast, expressed from a plasmid, in detergent-solubilized membrane fraction
B2: His6-AtFis1A (protein, UniProt Q9M1J1 1-170)
chain: T2 sequence
B3: His6-AtFis1B (protein, UniProt Q94CK3 1-167)
chain: T1 sequence
B4: His6-Fis1-ΔTM (missing the C-terminal 25 aa) (domain or fragment, UniProt P40515 1-130)
chain: MTKVDFWPTLKDAYEPLYPQQLEILRQQVVSEGGPTATIQSRFNYAWGLIKSTDVNDERLGVKILTDIYKEAESRRRECLYYLTIGCYKLGEYSMAKRYVDTLFEHERNNKQVGALKSMVEDKIQKETLK
B5: nYFP-AtFis1A (protein, UniProt Q9M1J1 1-170)
chain: T2 sequence
B6: nYFP-AtFis1B (protein, UniProt Q94CK3 1-167)
chain: T1 sequence
B7: yeast His6-Sac1p (enzyme, S. cerevisiae, UniProt P32368 1-623, looked up)
chain: MTGPIVYVQNADGIFFKLAEGKGTNDAVIHLANQDQGVRVLGAEEFPVQGEVVKIASLMGFIKLKLNRYAIIANTVEETGRFNGHVFYRVLQHSIVSTKFNSRIDSEEAEYIKLLELHLKNSTFYFSYTYDLTNSLQRNEKVGPAASWKTADERFFWNHYLTEDLRNFAHQDPRIDSFIQPVIYGYAKTVDAVLNATPIVLGLITRRSIFRAGTRYFRRGVDKDGNVGNFNETEQILLAENPESEKIHVFSFLQTRGSVPIYWAEINNLKYKPNLVLGENSLDATKKHFDQQKELYGDNYLVNLVNQKGHELPVKEGYESVVHALNDPKIHYVYFDFHHECRKMQWHRVKLLIDHLEKLGLSNEDFFHKVIDSNGNTVEIVNEQHSVVRTNCMDCLDRTNVVQSVLAQWVLQKEFESADVVATGSTWEDNAPLLTSYQNLWADNADAVSVAYSGTGALKTDFTRTGKRTRLGAFNDFLNSASRYYQNNWTDGPRQDSYDLFLGGFRPHTASIKSPFPDRRPVYIQLIPMIICAALTVLGATIFFPKDRFTSSKNLLYFAGASIVLALSTKFMFKNGIQFVNWPKLVDVGFLVVHQTHDKEQQFKGLKYAQSPKFSKPDPLKRD
notes: Sac1p PI4P phosphatase, S. cerevisiae; source: yeast, expressed from a plasmid, in detergent-solubilized membrane fraction

Key:
[1] = molecular target: T1, nYFP-AtFis1B (Arabidopsis thaliana); assay: split reporter; BiFC in mock-infected (noninfected) N. benthamiana leaves, in the absence of TBSV replication
[2] = molecular target: T2, nYFP-AtFis1A (Arabidopsis thaliana); assay: split reporter; BiFC (nYFP/cYFP fusions, 35S promoter, co-agroinfiltration) in N. benthamiana leaves infected with TBSV or CIRV; confocal microscopy; includes TRV-MBP control plants
[3] = molecular target: T1, nYFP-AtFis1B (Arabidopsis thaliana); assay: as above
[4] = molecular target: T3, yeast Fis1p, MYTH bait (S. cerevisiae); assay: two-hybrid; split-ubiquitin-based membrane yeast two-hybrid assay (MYTH) in yeast; bait (TBSV p33 or yeast Fis1p) co-expressed with NubG prey proteins
[5] = molecular target: CIRV Flag-p36 replication protein (carnation Italian ringspot virus (CIRV)); assay: co-IP; Flag-affinity purification of Flag-tagged replication proteins (TBSV Flag-p33 + Flag-p92pol or CIRV Flag-p36 + Flag-p95pol) from the detergent-solubilized membrane fraction of yeast; samples cross-linked with formaldehyde; co-purified His6-tagged proteins detected with anti-His antibody; WT, fis1Δ, Fis1p- or Dnm1-ZZ-over-expressing yeast; cycloheximide time course
[6] = molecular target: CIRV Flag-p95^pol replication protein (carnation Italian ringspot virus (CIRV)); assay: as above
[7] = molecular target: MBP-tagged CIRV p36, soluble C-terminal region (carnation Italian ringspot virus (CIRV)); assay: pull-down; MBP-tagged p33 or p36 C-terminal regions captured by MBP affinity; captured His6-tagged Fis1-ΔTM proteins from E. coli detected with anti-His antibody
[8] = molecular target: MBP-tagged TBSV p33, soluble C-terminal region (tomato bushy stunt virus (TBSV)); assay: as above
[9] = molecular target: CIRV p36-cYFP replication protein (carnation Italian ringspot virus (CIRV)); assay: split reporter; BiFC (nYFP/cYFP fusions, 35S promoter, co-agroinfiltration) in N. benthamiana leaves infected with TBSV or CIRV; confocal microscopy; includes TRV-MBP control plants

Molecule | binding [5] | binding [6] | further results
AtSac1-cYFP (Arabidopsis thaliana) (enzyme) |  |  | binding [1]: binds; binding [2]: binds; binding [3]: binds
Arabidopsis Sac1 protein, MYTH prey (enzyme) |  |  | binding [4]: binds
B1 | binds | binds | 
B2 | binds | binds | 
B3 | binds | binds | 
B4 |  |  | binding [7]: binds; binding [8]: binds
B5 |  |  | binding [9]: binds
B6 |  |  | binding [9]: binds
B7 | binds | binds | 
